Experimental data published in PubChem BioAssay AID256 (DTP/NCI, 2004).
The list shows only some results of the screen, not a fair sample: it gathers tests that were run many times, whatever their T/C, doses with no T/C, and many T/C values between a quarter and a half above the control. Further doses and runs are listed elsewhere. T/C: endpoint of the treated group in % of that of the vehicle group. Some entries give survivors of the animals treated and no T/C: the source files T/C as zero there, which appears to mark a toxic dose or a test without result, not a measured value. Some survivor counts are full or nearly so, which does not show that the dose was tolerated: the source hardly ever lists a survival T/C far under the control, and the zero likely stands for such cases as well. Counts of survivors are from the toxicity check (mostly the fifth day) where no day follows; animals may have died later. Schedule codes are those of the source, taken here to give the interval after Q, in days (D) or hours (H), and the number of doses after X. Where survival is the endpoint, the PubChem record calls one and a half times the control and up active, and a quarter to a half above the control has no call in these data; cut-offs in other NCI protocols can differ. Some T/C values carry the count of animals alive at the toxicity check (mostly the fifth day); where none is given, no animal had died by that day. Some entries hold several experiments; the results are listed from low to high.

System: CD2F1 mice, L1210 leukemia ip, survival T/C
Assay: NCI In Vivo Anticancer Drug Screen. Data for tumor model L1210 Leukemia (intraperitoneal) in CD2F1 (CDF1) mice
Conditions: higher T/C = longer survival
Outline: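 Each value reflects a quotient of treated over vehicle control outcomes in mice with a transplanted tumor.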

[1] = T/C endpoint: mean survival time, dose: 12.5 mg/kg/injection, schedule: Q01DX009 (ip), vehicle: saline with Tween-80
[2] = T/C endpoint: mean survival time, dose: 25.0 mg/kg/injection, schedule: Q01DX009 (ip), vehicle: saline with Tween-80
[3] = T/C endpoint: mean survival time, dose: 400.0 mg/kg/injection, schedule: Q01DX009 (ip), vehicle: saline with Tween-80
[4] = T/C endpoint: mean survival time, dose: 6.25 mg/kg/injection, schedule: Q01DX009 (ip), vehicle: saline with Tween-80
[5] = T/C endpoint: mean survival time, dose: 25.0 mg/kg/injection, schedule: Q04DX002 (ip), vehicle: saline with Tween-80
[6] = T/C endpoint: mean survival time, dose: 50.0 mg/kg/injection, schedule: Q04DX002 (ip), vehicle: saline with Tween-80
[7] = T/C endpoint: mean survival time, dose: 100.0 mg/kg/injection, schedule: Q04DX002 (ip), vehicle: saline with Tween-80
[8] = T/C endpoint: mean survival time, dose: 100.0 mg/kg/injection, schedule: Q01DX009 (ip), vehicle: saline with Tween-80
[9] = T/C endpoint: mean survival time, dose: 200.0 mg/kg/injection, schedule: Q01DX001 (ip), vehicle: saline with Tween-80
[10] = T/C endpoint: mean survival time, dose: 400.0 mg/kg/injection, schedule: Q01DX001 (ip), vehicle: saline with Tween-80
[11] = T/C endpoint: mean survival time, dose: 12.5 mg/kg/injection, schedule: Q01DX009 (ip), vehicle: saline
[12] = T/C endpoint: mean survival time, dose: 25.0 mg/kg/injection, schedule: Q01DX009 (ip), vehicle: saline
[13] = T/C endpoint: mean survival time, dose: 200.0 mg/kg/injection, schedule: Q04DX002 (ip), vehicle: saline with Tween-80
[14] = T/C endpoint: mean survival time, dose: 400.0 mg/kg/injection, schedule: Q04DX002 (ip), vehicle: saline with Tween-80
[15] = T/C endpoint: mean survival time, dose: 200.0 mg/kg/injection, schedule: Q01DX009 (ip), vehicle: saline with Tween-80
[16] = T/C endpoint: mean survival time, dose: 200.0 mg/kg/injection, schedule: Q01DX009 (ip), vehicle: saline

CCOC(=O)/C=C1\NC(=O)N(CCCN2C(=O)N/C(=C\C(=O)OCC)C2=O)C1=O
survivor count [1]: 3 of 3
survivor count [2]: 3 of 3

N#Cc1c(F)c(F)cc(F)c1F
survivor count [3]: 5 of 6

C[CH2][Sn]([CH2]C)([CH2]C)[S]Cc1ccccc1
survivor count [4]: 5 of 6
survivor count [1]: 2 of 6
survivor count [2]: 0 of 6
survivor count [5]: 0 of 3
survivor count [6]: 0 of 3
survivor count [7]: 0 of 3

COc1cc2cc3cc4cc(OC)c(OC)cc4c(C)[n+]3cc2cc1OC (tested in a mixture with another compound)
survivor count (T/C endpoint: mean survival time, dose: 400.0 mg/kg/injection, schedule: Q01DX009 (ip), vehicle: suspension in saline): 4 of 6

COC(=O)C(F)C(Br)C(=O)OC (centres undefined)
survivor count [8]: 2 of 6

O=C1CCCC(=O)N1CCCCCCN1C(=O)CCCC1=O
survivor count [3]: 2 of 6

Cc1ccnc(OCCCCCNCCS)c1
survivor count (T/C endpoint: mean survival time, dose: 300.0 mg/kg/injection, schedule: Q01DX001 (ip), vehicle: saline): 0 of 6

COc1cc2nc(/C=C/c3nc4cc(OC)c(OC)cc4[nH]3)[nH]c2cc1OC
survivor count [9]: 2 of 6
survivor count [10]: 0 of 6

CC(C)([NH-])C[NH-].O=C(O)CCO.[Pt+2]
T/C (T/C endpoint: median survival time, dose: 10.0 mg/kg/injection, schedule: Q04DX003 (ip), vehicle: saline): 139 % of control
T/C (T/C endpoint: median survival time, dose: 10.0 mg/kg/injection, schedule: Q04DX003 (ip), vehicle: water): 132 % of control

CC1=C(O)C(=O)[C@@H]2O[C@@H]2C1=O
survivor count [11]: 3 of 6
survivor count [12]: 0 of 6

CN(C)/N=N/c1[nH]cnc1C(N)=O.[Cl][Cu][Cl]
survivor count (T/C endpoint: mean survival time, dose: 25.0 mg/kg/injection, schedule: Q04DX003 (ip), vehicle: water): 3 of 6
survivor count (T/C endpoint: mean survival time, dose: 64.0 mg/kg/injection, schedule: Q01DX001 (ip), vehicle: distilled water + Tween-80): 0 of 6

N#CC(c1c[nH]c2ccccc12)N1CCOCC1 (centres undefined)
survivor count [7]: 0 of 3

CCOC1CCN(CCCn2c3ccccc3c3ccccc32)CC1
survivor count [13]: 0 of 3
survivor count [14]: 0 of 3

Cn1c(-c2ccccc2N=NN2CCCCC2)nc(=N)c2ccccc21
survivor count (T/C endpoint: mean survival time, dose: 25.0 mg/kg/injection, schedule: Q01DX005 (ip), vehicle: water): 1 of 3
survivor count (T/C endpoint: mean survival time, dose: 50.0 mg/kg/injection, schedule: Q01DX005 (ip), vehicle: water): 1 of 3
survivor count (T/C endpoint: mean survival time, dose: 100.0 mg/kg/injection, schedule: Q01DX005 (ip), vehicle: water): 0 of 3

ClC1CCC[N-]C1.ClC1CCC[N-]C1.[Cl][Pt+2]([Cl])([Cl])[Cl] (centres undefined)
survivor count [1]: 6 of 6
survivor count [2]: 6 of 6
survivor count (T/C endpoint: mean survival time, dose: 50.0 mg/kg/injection, schedule: Q01DX009 (ip), vehicle: saline with Tween-80): 1 of 6
survivor count [8]: 0 of 6
survivor count [15]: 0 of 6

CN(CCCOS(C)(=O)=O)CCCN(C)CCCOS(C)(=O)=O
T/C (T/C endpoint: mean survival time, dose: 150.0 mg/kg/injection, schedule: Q01DX001 (ip), vehicle: saline): 127 % of control
T/C (T/C endpoint: mean survival time, dose: 200.0 mg/kg/injection, schedule: Q01DX001 (ip), vehicle: saline): 132 % of control

CN(C)Cc1[c-]c(CN(C)C)ccc1.[Cl][Pt]
survivor count (T/C endpoint: median survival time, dose: 6.25 mg/kg/injection, schedule: Q04DX003 (ip), vehicle: saline): 6 of 6
survivor count (T/C endpoint: median survival time, dose: 100.0 mg/kg/injection, schedule: Q04DX003 (ip), vehicle: saline): 4 of 6
survivor count (T/C endpoint: median survival time, dose: 200.0 mg/kg/injection, schedule: Q04DX003 (ip), vehicle: saline): 0 of 6

COc1ccc(NC(=O)Nc2ccc([N+](=O)[O-])cc2OC)c(Cl)c1
survivor count [9]: 3 of 3

Cc1ccc(Cl)cc1NC(=O)CCl
survivor count [15]: 0 of 6
survivor count [3]: 0 of 6

O=C(NC(C(=O)NC(C(=O)O)C1CC(Cl)=NO1)C1CC(Cl)=NO1)OCC1c2ccccc2-c2ccccc21 (centres undefined)
T/C (T/C endpoint: mean survival time, dose: 3.12 mg/kg/injection, schedule: Q01DX009 (ip), vehicle: saline): 137 % of control
T/C (T/C endpoint: mean survival time, dose: 6.2 mg/kg/injection, schedule: Q01DX009 (ip), vehicle: saline): 148 % of control
T/C (T/C endpoint: mean survival time, dose: 6.25 mg/kg/injection, schedule: Q01DX009 (ip), vehicle: saline): 146 % of control
T/C [11]: 127 [5 of 6 alive] and 133 % of control
survivor count [12]: 6 of 6
survivor count (T/C endpoint: mean survival time, dose: 50.0 mg/kg/injection, schedule: Q01DX009 (ip), vehicle: saline): 4 of 6
survivor count (T/C endpoint: mean survival time, dose: 100.0 mg/kg/injection, schedule: Q01DX009 (ip), vehicle: saline): 0 of 6

C=CC(=O)c1ccccc1
survivor count [13]: 0 of 3
survivor count [14]: 0 of 3

CC1=NCC[N-]C(C)(C)CC(C)=NCC[N-]C(C)(C)C1.[Ni+2].[O-][Cl+3]([O-])([O-])O
survivor count (T/C endpoint: mean survival time, dose: 400.0 mg/kg/injection, schedule: Q04DX003 (ip), vehicle: saline): 0 of 6

O=C(NC(=S)Nc1cc(Cl)ccc1Cl)c1cccc(Br)c1
T/C [15]: 127 % of control

OC[CH2][Hg][Cl]
survivor count [4]: 2 of 6
survivor count [1]: 0 of 6
survivor count [2]: 0 of 6
survivor count [5]: 1 of 3
survivor count [6]: 0 of 3
survivor count [7]: 0 of 3

Clc1ccc2ccccc2c1C(Cl)Cl
survivor count [8]: 6 of 6

COc1ccccc1NC(=O)Oc1ccc(C2CCCCC2)cc1
survivor count [13]: 3 of 3
survivor count [14]: 3 of 3

COC(=O)C(CC(C)C)NC(=O)C(N)CSC(c1ccccc1)(c1ccccc1)c1ccccc1 (centres undefined)
T/C [16]: 126 % of control
T/C (T/C endpoint: mean survival time, dose: 400.0 mg/kg/injection, schedule: Q01DX009 (ip), vehicle: saline): 127 % of control [5 of 6 alive]

CC(C)N1C(=O)C2C3C=CC(C3)C2C1=O (centres undefined)
survivor count [7]: 1 of 3
survivor count [13]: 0 of 3
survivor count [14]: 0 of 3

C[CH2][Sn]([Cl])([Cl])[Cl].Oc1ccccc1C=NCCN=Cc1ccccc1O
survivor count (T/C endpoint: mean survival time, dose: 400.0 mg/kg/injection, schedule: Q04DX003 (ip), vehicle: saline with Tween-80): 3 of 6

Cc1cc2[nH]cnc2cc1Cl
survivor count [16]: 1 of 3

Cn1c(=O)c2c(nc(NCCOC(=S)S)n2C)n(C)c1=O
survivor count (T/C endpoint: mean survival time, dose: 100.0 mg/kg/injection, schedule: Q01DX005 (ip), vehicle: distilled water + Tween-80): 0 of 6
survivor count (T/C endpoint: mean survival time, dose: 200.0 mg/kg/injection, schedule: Q01DX005 (ip), vehicle: distilled water + Tween-80): 0 of 6

CCCCCCCCCC(=O)NC(=S)Nc1cccc(C(C)=O)c1
survivor count [10]: 6 of 6
survivor count [3]: 3 of 6

O=NN(CCF)C(=O)NC1CCCCC1
T/C (T/C endpoint: median survival time, dose: 20.0 mg/kg/injection, schedule: Q04DX002 (ip), vehicle: saline): 136 % of control
survivor count (T/C endpoint: median survival time, dose: 160.0 mg/kg/injection, schedule: Q04DX002 (ip), vehicle: saline): 3 of 6
survivor count (T/C endpoint: median survival time, dose: 320.0 mg/kg/injection, schedule: Q04DX002 (ip), vehicle: saline): 2 of 6
